± gives the uncertainty stated by the source. The uncertainty is large for many entries.
Experiment: self-splicing fitness, log relative to wild type (ln ratio); higher = more splicing; Tetrahymena group I intron in knt gene, E. coli kanamycin selection, DiMSum; sequences stand for … in CUCUCU…GGAGGGAAAAGUUAUCAGGCAUGCACCUGGUAGCUAGUCUUUAAACCAAUAGAUUGCAUCGGUUUAAAAGGCAAGACCGUCAAAUUGCGGGAAAGGGGUCAACAGCCGUUCAGUACCAAGUCUCAGGGGAAACUUUGAGAUGGCCUUGCAAAGGGUAUGGUAAUAAGCUGACGGACAUGGUCCUAACCACGCAGCCAAGUCCUAAGUCAACAGAUCUUCUGUUGAUAUGGAUGCAGUUCACAGACUAAAUGUCGGUCGGGGAAGAUGUAUUCUUCUCAUAAGAUAUAGUCGGACCUCUCCUUAAUGGGAGCUAGCGGAUGAAGUGAUGCAACACUGGAGCCGCUGGGAACUAAUUUGUAUGCGAAAGUAUAUUGAUUAGUUUUGGAGUACUCGUGGUCG
Procedure, shortened: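 Colonies from six replicate transformations of E. coli BL21(DE3) were pooled and amplicon-sequenced on an Illumina HiSeq 2500. The library placed an intron with all eight P1ex-region nucleotides randomised inside the knt kanamycin-resistance gene on pET-22b(+), and cells grew overnight at 37°C or 30°C on LB agar with or without 25 μg/mL kanamycin (plus 100 μg/mL carbenicillin, 50 μM IPTG, 0.2% rhamnose). Fitness is the DiMSum error-weighted combination of wild-type-normalised replicate fold changes, kanamycin versus none.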

| Sequence | self-splicing fitness (ln) (37 °C) | self-splicing fitness (ln) (30 °C) |
| --- | --- | --- |
| GCUGAGCAAUAUUACGUAGC | -1.13 ± 1.2 | – |
| UAGUAGCAAUAUUACGCCAC | -1.56 ± 0.4 | – |
| UUCAAGCAAUAUUACGCCCC | -1.29 ± 1.2 | -1.13 ± 0.61 |
| GGCGAGCAAUAUUACGAAGC | -1.38 ± 0.69 | – |
| GAGUAGCAAUAUUACGUCUC | -3.55 ± 0.6 | -3.39 ± 0.65 |
| CACUAGCAAUAUUACGCUAC | – | -3.2 ± 0.6 |
| GAAUAGCAAUAUUACGGUUG | -0.561 ± 0.13 | -1.27 ± 0.092 |
| UUAUAGCAAUAUUACGUAUU | – | -4.2 ± 0.59 |
| CGUGAGCAAUAUUACGCAAU | -2.75 ± 0.25 | -2.52 ± 0.14 |
| UACAAGCAAUAUUACGACCC | -1.33 ± 0.87 | – |
| CAUUAGCAAUAUUACGCCUA | – | -1.93 ± 0.54 |
| ACAGAGCAAUAUUACGUACC | -0.689 ± 0.52 | -3.47 ± 0.54 |
| CAGAAGCAAUAUUACGCCAA | -3.13 ± 0.61 | -3.35 ± 0.38 |
| CCGGAGCAAUAUUACGCACA | -2.66 ± 0.76 | – |
| CAAUAGCAAUAUUACGUUCA | -2.59 ± 0.24 | -3.43 ± 0.25 |
| AUUGAGCAAUAUUACGGUAC | – | -4.85 ± 0.72 |
| UCCUAGCAAUAUUACGAAUU | -2.08 ± 0.56 | -4.17 ± 0.73 |
| CGAUAGCAAUAUUACGCCAU | -2.67 ± 0.75 | -3.28 ± 0.53 |
| UCGAAGCAAUAUUACGCUAA | – | -3.81 ± 0.53 |
| GGGGAGCAAUAUUACGUUUG | – | -2.97 ± 0.53 |

| Sequence | self-splicing fitness (ln) (37 °C) | self-splicing fitness (ln) (30 °C) |
| --- | --- | --- |
| GAUGAGCAAUAUUACGGGUU | -2.6 ± 0.27 | -2.39 ± 0.17 |
| GGGCAGCAAUAUUACGCCCU | -2.44 ± 0.76 | – |
| CCGUAGCAAUAUUACGGAUA | – | -4.1 ± 0.52 |
| CAGUAGCAAUAUUACGAAUU | -3.43 ± 0.52 | – |
| GCGAAGCAAUAUUACGGUAC | -1.2 ± 0.15 | -2.89 ± 0.17 |
| UGGGAGCAAUAUUACGCGAU | – | -3.12 ± 1.1 |
| UUGGAGCAAUAUUACGGGAU | – | -4.03 ± 0.73 |
| GACAAGCAAUAUUACGUCCC | -0.711 ± 0.64 | -2.39 ± 0.56 |
| CACCAGCAAUAUUACGGUUC | -1.25 ± 0.085 | -2.02 ± 0.065 |
| UGGCAGCAAUAUUACGGAGC | -2.9 ± 1.1 | -3.3 ± 0.53 |
| UGCGAGCAAUAUUACGUUCG | – | -3.12 ± 0.61 |
| CGCGAGCAAUAUUACGCCAA | -0.727 ± 0.64 | – |
| GCCAAGCAAUAUUACGGAGG | -1.08 ± 0.16 | -3.49 ± 0.19 |
| AUGCAGCAAUAUUACGCAGG | -2.13 ± 0.12 | -3.71 ± 0.14 |
| GGGUAGCAAUAUUACGAACC | 0.875 ± 0.79 | – |
| AGAAAGCAAUAUUACGCAUC | -1.47 ± 0.54 | – |
| UUAGAGCAAUAUUACGUGGC | -2.31 ± 0.63 | -3.43 ± 0.73 |
| UGCGAGCAAUAUUACGAGAA | -1.9 ± 0.66 | – |
| UCUUAGCAAUAUUACGCCCU | -0.972 ± 0.52 | -2.42 ± 1.2 |
| AUCAAGCAAUAUUACGCACG | -2.28 ± 0.18 | -2.1 ± 0.15 |

| Sequence | self-splicing fitness (ln) (37 °C) | self-splicing fitness (ln) (30 °C) |
| --- | --- | --- |
| UAGGAGCAAUAUUACGGUCU | -2.44 ± 0.63 | – |
| UCAGAGCAAUAUUACGCUGU | -2.33 ± 0.55 | – |
| CGCGAGCAAUAUUACGUACC | – | -4.33 ± 1 |
| CUGAAGCAAUAUUACGACUC | -2.7 ± 0.54 | – |
| UCUUAGCAAUAUUACGGACC | – | -3.57 ± 0.55 |
| CGGAAGCAAUAUUACGUCGU | – | -4.14 ± 0.51 |
| UGAUAGCAAUAUUACGUCCC | 0.166 ± 0.75 | -1.73 ± 0.91 |
| UCGGAGCAAUAUUACGUAGC | -1.89 ± 0.57 | -4.31 ± 1 |
| UCAGAGCAAUAUUACGCCUG | -3.09 ± 0.6 | – |
| UGGGAGCAAUAUUACGGAAC | -0.234 ± 1.4 | – |
| GGCCAGCAAUAUUACGAACC | -0.0497 ± 0.4 | 0.576 ± 0.31 |
| GCCUAGCAAUAUUACGCCGA | -1.15 ± 0.57 | – |
| UAGUAGCAAUAUUACGAGGA | – | -1.94 ± 0.51 |
| CUAUAGCAAUAUUACGCAAC | – | -4.99 ± 0.59 |
| GUAGAGCAAUAUUACGACUU | 0.104 ± 0.1 | -0.172 ± 0.081 |
| UCAGAGCAAUAUUACGGACU | – | -3.92 ± 0.53 |
| UAAUAGCAAUAUUACGCUAU | -1.85 ± 0.21 | -2.93 ± 0.19 |
| GGCUAGCAAUAUUACGAUCC | -0.566 ± 0.87 | – |
| CUCUAGCAAUAUUACGAAAC | -1.9 ± 0.51 | – |
| CCCGAGCAAUAUUACGAGUA | -2.37 ± 0.14 | -3.01 ± 0.16 |

Quoted from the listing for reference:

| Sequence | self-splicing fitness (ln) (37 °C) | self-splicing fitness (ln) (30 °C) |
| --- | --- | --- |
| CUAUAGCAAUAUUACGCAAC | – | -4.99 ± 0.59 |
| GUAGAGCAAUAUUACGACUU | 0.104 ± 0.1 | -0.172 ± 0.081 |
| UCAGAGCAAUAUUACGGACU | – | -3.92 ± 0.53 |
| UAAUAGCAAUAUUACGCUAU | -1.85 ± 0.21 | -2.93 ± 0.19 |
| GGCUAGCAAUAUUACGAUCC | -0.566 ± 0.87 | – |

Reference: the supplement of paper PMC7877785
